This assay addresses Grb2 adaptor protein (mouse (endogenous in FAK-/- fibroblasts)), Q60631. The experiment in a line: co-IP. Conditions: remark: other sources report otherwise.

No constants are given. Whether binding was seen depends on the method and setting. Binding seen in cells or lysates may run through a third protein. Some results given as binding are weak or reduced against the parent protein; the word gives no strength. Tags and fused reporters may be left off the sequences shown.

B1: wild-type focal adhesion kinase (FAK), HA-tagged, tyrosine-phosphorylated (active FAK), P34152 1-1052 (protein)
chain: MAAAYLDPNLNHTPSSSTKTHLGTGMERSPGAMERVLKVFHYFESSSEPTTWASIIRHGDATDVRGIIQKIVDSHKVKHVACYGFRLSHLRSEEVHWLHVDMGVSSVREKYELAHPPEEWKYELRIRYLPKGFLNQFTEDKPTLNFFYQQVKSDYMQEIADQVDQEIALKLGCLEIRRSYWEMRGNALEKKSNYEVLEKDVGLKRFFPKSLLDSVKAKTLRKLIQQTFRQFANLNREESILKFFEILSPVYRFDKECFKCALGSSWIISVELAIGPEEGISYLTDKGCNPTHLADFNQVQTIQYSNSEDKDRKGMLQLKIAGAPEPLTVTAPSLTIAENMADLIDGYCRLVNGATQSFIIRPQKEGERALPSIPKLANSEKQGMRTHAVSVSETDDYAEIIDEEDTYTMPSTRDYEIQRERIELGRCIGEGQFGDVHQGVYLSPENPALAVAIKTCKNCTSDSVREKFLQEALTMRQFDHPHIVKLIGVITENPVWIIMELCTLGELRSFLQVRKYSLDLASLILYAYQLSTALAYLESKRFVHRDIAARNVLVSSNDCVKLGDFGLSRYMEDSTYYKASKGKLPIKWMAPESINFRRFTSASDVWMFGVCMWEILMHGVKPFQGVKNNDVIGRIENGERLPMPPNCPPTLYSLMTKCWAYDPSRRPRFTELKAQLSTILEEEKVQQEERMRMESRRQATVSWDSGGSDEAPPKPSRPGYPSPRSSEGFYPSPQHMVQTNHYQVSGYPGSHGIPAMAGSIYQGQASLLDQTELWNHRPQEMSMWQPSVEDSAALDLRGMGQVLPPHLMEERLIRQQQEMEEDQRWLEKEERFLKPDVRLSRGSIDREDGSFQGPTGNQHIYQPVGKPDPAAPPKKPPRPGAPGHLSNLSSISSPADSYNEGVKLQPQEISPPPTANLDRSNDKVYENVTGLVKAVIEMSSKIQPAPPEEYVPMVKEVGLALRTLLATVDETIPALPASTHREIEMAQKLLNSDLGELISKMKLAQQYVMTSLQQEYKKQMLTAAHALAVDAKNLLDVIDQARLKMLGQTRPH
modifications: here or on the partner: phosphotyrosine (detected with anti-phospho-Tyr; site not given)
As for B1, the binding entry is on record as “binds”.

The values above are taken from publication PMC2637432.
